# Experimental data: the supplement of paper PMC8728848
# Some of the results follow.
# B1: Sp8391B-bot-388-20-388 (Bacteroides ovatus) (protein)
# chain: GCQNNDENEQHYDNKLFISASNFTKEILFKAGDTNVETGLSVAIAKPEEHDIKVTMSPAPELLSTYKLAYYDETAVLLSEEHYSMPETSTTIKSGSIVSPELPIEFINTGELDIKTTYVLPVTIKSVEGIGVLQSAKTYYYVFRGASLINVVCNISRNRAYPDFKNDSKFNNLTENTMEILFKANSFPNTLNTLMGIESNYLLRIGDATIPNNQLQVATSVNNCTSADLQLESGKWYHVAVAFNKGNVKVYINGVEKLSGSTGKSSVSLGAKHTNEEDGSRCFWVGYSYKDDRYFDGVVSEVRIWNRALTAEEIQATNHFYTIEPESEGLIAYWKFDEGSGTVAKDYSVSGYDLTIEKEPKWESVSLPQ
# How the values were obtained:
# Assay in all cases: glycan array binding signal (z-score within array); higher = stronger binding
# Conditions in all cases: glycan notation: IUPAC condensed, linker removed
# Kdn(a2-3)Gal(b1-4)Glc = biological target: Kdn(a2-3)Gal(b1-4)Glc
# Method in brief: (§1)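 Columns mapping to the same glycan were averaged after glycan names were converted to IUPAC-condensed notation. The data come from 3228 arrays in the Consortium for Functional Glycomics database, limited to those with an available protein sequence. Binding is reported as a within-array Z-score averaged across arrays of one protein sequence and across linkers.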
# Kdn(a2-3)Gal(b1-4)GlcNAc = biological target: Kdn(a2-3)Gal(b1-4)GlcNAc
# Method in brief: as §1
# [1] = biological target: Kdn(a2-3)Gal(b1-4)[Fuc(a1-3)]GlcNAc
# Method in brief: as §1
# Kdn(a2-6)Gal(b1-4)GlcNAc = biological target: Kdn(a2-6)Gal(b1-4)GlcNAc
# Method in brief: as §1
# [2] = biological target: Man(a1-2)Man(a1-2)Man(a1-3)Man
# Method in brief: as §1
# [3] = biological target: Man(a1-2)Man(a1-2)Man(a1-6)[Man(a1-3)]Man
# Method in brief: as §1
# Man(a1-2)Man(a1-3)Man = biological target: Man(a1-2)Man(a1-3)Man
# Method in brief: as §1
# [4] = biological target: Man(a1-2)Man(a1-3)[Man(a1-2)Man(a1-6)]Man
# Method in brief: as §1
# [5] = biological target: Man(a1-2)Man(a1-3)[Man(a1-2)Man(a1-6)]Man(a1-6)[Man(a1-2)Man(a1-2)Man(a1-3)]Man
# Method in brief: as §1
# [6] = biological target: Man(a1-2)Man(a1-3)[Man(a1-2)Man(a1-6)]Man(a1-6)[Man(a1-2)Man(a1-2)Man(a1-3)]Man(b1-4)GlcNAc(b1-4)GlcNAc
# Method in brief: as §1
# [7] = biological target: Man(a1-2)Man(a1-3)[Man(a1-6)]Man(a1-6)[Man(a1-2)Man(a1-3)]Man(b1-4)GlcNAc(b1-4)GlcNAc
# Method in brief: as §1
# [8] = biological target: Man(a1-2)Man(a1-6)[Man(a1-3)]Man(a1-6)[Man(a1-2)Man(a1-2)Man(a1-3)]Man
# Method in brief: as §1
# [9] = biological target: Man(a1-2)Man(a1-6)[Man(a1-3)]Man(a1-6)[Man(a1-2)Man(a1-2)Man(a1-3)]Man(b1-4)GlcNAc(b1-4)GlcNAc
# Method in brief: as §1
# Man(a1-3)[Man(a1-6)]Man = biological target: Man(a1-3)[Man(a1-6)]Man
# Method in brief: as §1
# [10] = biological target: Man(a1-3)[Man(a1-6)]Man(a1-6)[Man(a1-2)Man(a1-3)]Man(b1-4)GlcNAc(b1-4)GlcNAc
# Method in brief: as §1
# [11] = biological target: Man(a1-3)[Man(a1-6)]Man(a1-6)[Man(a1-3)]Man
# Method in brief: as §1
# [12] = biological target: Man(a1-3)[Man(a1-6)]Man(a1-6)[Man(a1-3)]Man(b1-4)GlcNAc(b1-4)GlcNAc
# Method in brief: as §1
# [13] = biological target: Man(a1-3)[Man(a1-6)]Man(b1-4)GlcNAc(b1-4)GlcNAc
# Method in brief: as §1
# [14] = biological target: Man(a1-3)[Man(a1-6)]Man(b1-4)GlcNAc(b1-4)[Fuc(a1-6)]GlcNAc
# Method in brief: as §1
# Man(a1-6)Man = biological target: Man(a1-6)Man
# Method in brief: as §1
# Man(b1-4)GlcNAc = biological target: Man(b1-4)GlcNAc
# Method in brief: as §1
# MurNAc(b1-4)GlcNAc = biological target: MurNAc(b1-4)GlcNAc
# Method in brief: as §1
# Neu5Ac(a2-3)Gal = biological target: Neu5Ac(a2-3)Gal
# Method in brief: as §1
# [15] = biological target: Neu5Ac(a2-3)Gal(b1-3)GalNAc
# Method in brief: as §1
# [16] = biological target: Neu5Ac(a2-3)Gal(b1-3)GalNAc(b1-3)Gal(a1-4)Gal(b1-4)Glc
# Method in brief: as §1
# [17] = biological target: Neu5Ac(a2-3)Gal(b1-3)GalNAc(b1-4)[Neu5Ac(a2-3)]Gal(b1-4)Glc
# Method in brief: as §1
# [18] = biological target: Neu5Ac(a2-3)Gal(b1-3)GalNAc(b1-4)[Neu5Ac(a2-8)Neu5Ac(a2-3)]Gal(b1-4)Glc
# Method in brief: as §1
# [19] = biological target: Neu5Ac(a2-3)Gal(b1-3)GalNAc6S
# Method in brief: as §1
# [20] = biological target: Neu5Ac(a2-3)Gal(b1-3)GlcNAc
# Method in brief: as §1
# [21] = biological target: Neu5Ac(a2-3)Gal(b1-3)GlcNAc(b1-2)Man
# Method in brief: as §1
# [22] = biological target: Neu5Ac(a2-3)Gal(b1-3)GlcNAc(b1-2)Man(a1-3)[GlcNAc(b1-4)][Neu5Ac(a2-3)Gal(b1-3)GlcNAc(b1-2)Man(a1-6)]Man(b1-4)GlcNAc(b1-4)GlcNAc
# Method in brief: as §1
# [23] = biological target: Neu5Ac(a2-3)Gal(b1-3)GlcNAc(b1-2)Man(a1-3)[Neu5Ac(a2-3)Gal(b1-3)GlcNAc(b1-2)Man(a1-6)]Man(b1-4)GlcNAc(b1-4)GlcNAc
# Method in brief: as §1
# [24] = biological target: Neu5Ac(a2-3)Gal(b1-3)GlcNAc(b1-3)Gal(b1-3)GlcNAc
# Method in brief: as §1
# [25] = biological target: Neu5Ac(a2-3)Gal(b1-3)GlcNAc(b1-3)Gal(b1-4)GlcNAc
# Method in brief: as §1
# [26] = biological target: Neu5Ac(a2-3)Gal(b1-3)GlcNAc(b1-3)GalNAc
# Method in brief: as §1
# [27] = biological target: Neu5Ac(a2-3)Gal(b1-3)GlcNAc(b1-4)Gal(b1-4)Glc
# Method in brief: as §1
# [28] = biological target: Neu5Ac(a2-3)Gal(b1-3)GlcNAc(b1-6)GalNAc
# Method in brief: as §1
# [29] = biological target: Neu5Ac(a2-3)Gal(b1-3)GlcNAc6S
# Method in brief: as §1
binder,measurement,setting,value
B1,glycan array binding signal (z-score),Kdn(a2-3)Gal(b1-4)Glc,-0.215
same,glycan array binding signal (z-score),Kdn(a2-3)Gal(b1-4)GlcNAc,0.306
same,glycan array binding signal (z-score),[1],1.91
same,glycan array binding signal (z-score),Kdn(a2-6)Gal(b1-4)GlcNAc,0.757
same,glycan array binding signal (z-score),[2],0.58
same,glycan array binding signal (z-score),[3],0.712
same,glycan array binding signal (z-score),Man(a1-2)Man(a1-3)Man,0.177
same,glycan array binding signal (z-score),[4],-0.309
same,glycan array binding signal (z-score),[5],-1.15
same,glycan array binding signal (z-score),[6],0.272
same,glycan array binding signal (z-score),[7],-0.67
same,glycan array binding signal (z-score),[8],-0.348
same,glycan array binding signal (z-score),[9],0.616
same,glycan array binding signal (z-score),Man(a1-3)[Man(a1-6)]Man,-1.24
same,glycan array binding signal (z-score),[10],-0.452
same,glycan array binding signal (z-score),[11],0.661
same,glycan array binding signal (z-score),[12],0.933
same,glycan array binding signal (z-score),[13],-0.057
same,glycan array binding signal (z-score),[14],-0.197
same,glycan array binding signal (z-score),Man(a1-6)Man,-0.352
same,glycan array binding signal (z-score),Man(b1-4)GlcNAc,1.19
same,glycan array binding signal (z-score),MurNAc(b1-4)GlcNAc,-0.265
same,glycan array binding signal (z-score),Neu5Ac(a2-3)Gal,-0.059
same,glycan array binding signal (z-score),[15],-0.722
same,glycan array binding signal (z-score),[16],-0.286
same,glycan array binding signal (z-score),[17],-0.636
same,glycan array binding signal (z-score),[18],-0.412
same,glycan array binding signal (z-score),[19],-0.665
same,glycan array binding signal (z-score),[20],-0.213
same,glycan array binding signal (z-score),[21],-0.633
same,glycan array binding signal (z-score),[22],-0.652
same,glycan array binding signal (z-score),[23],-0.686
same,glycan array binding signal (z-score),[24],-0.939
same,glycan array binding signal (z-score),[25],0.081
same,glycan array binding signal (z-score),[26],0.193
same,glycan array binding signal (z-score),[27],-0.577
same,glycan array binding signal (z-score),[28],-0.896
same,glycan array binding signal (z-score),[29],1.4

# A section from the list above, for reference:
binder,measurement,setting,value
B1,glycan array binding signal (z-score),Kdn(a2-3)Gal(b1-4)Glc,-0.215
same,glycan array binding signal (z-score),Kdn(a2-3)Gal(b1-4)GlcNAc,0.306
